According to PMC9068211:

Tests used:
[1] = target: T1, Rai14, endogenous in mouse brain (mouse (endogenous in P14 brain)) (UniProt Q9EP71); assay: co-IP; endogenous Rai14 and Tara from P14 mouse brain lysates; modified RIPA lysis buffer; protein-A agarose, 4 °C; normal rabbit IgG as negative control
T1 sequence: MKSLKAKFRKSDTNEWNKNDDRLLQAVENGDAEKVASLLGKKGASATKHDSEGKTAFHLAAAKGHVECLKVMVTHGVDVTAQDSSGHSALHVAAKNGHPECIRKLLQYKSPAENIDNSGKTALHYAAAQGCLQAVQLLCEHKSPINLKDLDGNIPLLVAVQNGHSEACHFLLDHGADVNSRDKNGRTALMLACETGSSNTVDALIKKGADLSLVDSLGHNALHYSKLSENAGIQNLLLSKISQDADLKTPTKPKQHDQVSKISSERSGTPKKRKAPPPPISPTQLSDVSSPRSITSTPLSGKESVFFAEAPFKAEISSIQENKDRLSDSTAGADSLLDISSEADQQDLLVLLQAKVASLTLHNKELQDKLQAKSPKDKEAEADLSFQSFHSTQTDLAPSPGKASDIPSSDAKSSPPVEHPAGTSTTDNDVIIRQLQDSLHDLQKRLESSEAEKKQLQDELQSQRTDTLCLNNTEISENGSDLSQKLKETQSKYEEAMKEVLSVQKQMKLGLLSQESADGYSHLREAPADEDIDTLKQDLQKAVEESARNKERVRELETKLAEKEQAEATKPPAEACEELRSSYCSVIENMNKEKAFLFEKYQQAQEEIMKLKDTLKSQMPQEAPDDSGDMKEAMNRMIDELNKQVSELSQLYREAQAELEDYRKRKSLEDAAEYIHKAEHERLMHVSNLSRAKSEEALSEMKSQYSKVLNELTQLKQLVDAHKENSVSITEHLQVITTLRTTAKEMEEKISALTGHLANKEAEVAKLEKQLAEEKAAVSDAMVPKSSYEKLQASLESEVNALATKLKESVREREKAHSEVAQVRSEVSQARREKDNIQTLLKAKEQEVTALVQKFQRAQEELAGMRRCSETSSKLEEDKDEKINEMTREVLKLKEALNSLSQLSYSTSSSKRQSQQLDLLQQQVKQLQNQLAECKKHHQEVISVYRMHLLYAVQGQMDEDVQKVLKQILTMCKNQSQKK

FLAG-hRai14 (human) = target: T2, FLAG-hRai14 (human) (UniProt Q9P0K7); assay: co-IP; FLAG-Rai14 with GFP-Tara fragments co-expressed in HEK293 cells; IP with anti-FLAG antibody
T2 sequence: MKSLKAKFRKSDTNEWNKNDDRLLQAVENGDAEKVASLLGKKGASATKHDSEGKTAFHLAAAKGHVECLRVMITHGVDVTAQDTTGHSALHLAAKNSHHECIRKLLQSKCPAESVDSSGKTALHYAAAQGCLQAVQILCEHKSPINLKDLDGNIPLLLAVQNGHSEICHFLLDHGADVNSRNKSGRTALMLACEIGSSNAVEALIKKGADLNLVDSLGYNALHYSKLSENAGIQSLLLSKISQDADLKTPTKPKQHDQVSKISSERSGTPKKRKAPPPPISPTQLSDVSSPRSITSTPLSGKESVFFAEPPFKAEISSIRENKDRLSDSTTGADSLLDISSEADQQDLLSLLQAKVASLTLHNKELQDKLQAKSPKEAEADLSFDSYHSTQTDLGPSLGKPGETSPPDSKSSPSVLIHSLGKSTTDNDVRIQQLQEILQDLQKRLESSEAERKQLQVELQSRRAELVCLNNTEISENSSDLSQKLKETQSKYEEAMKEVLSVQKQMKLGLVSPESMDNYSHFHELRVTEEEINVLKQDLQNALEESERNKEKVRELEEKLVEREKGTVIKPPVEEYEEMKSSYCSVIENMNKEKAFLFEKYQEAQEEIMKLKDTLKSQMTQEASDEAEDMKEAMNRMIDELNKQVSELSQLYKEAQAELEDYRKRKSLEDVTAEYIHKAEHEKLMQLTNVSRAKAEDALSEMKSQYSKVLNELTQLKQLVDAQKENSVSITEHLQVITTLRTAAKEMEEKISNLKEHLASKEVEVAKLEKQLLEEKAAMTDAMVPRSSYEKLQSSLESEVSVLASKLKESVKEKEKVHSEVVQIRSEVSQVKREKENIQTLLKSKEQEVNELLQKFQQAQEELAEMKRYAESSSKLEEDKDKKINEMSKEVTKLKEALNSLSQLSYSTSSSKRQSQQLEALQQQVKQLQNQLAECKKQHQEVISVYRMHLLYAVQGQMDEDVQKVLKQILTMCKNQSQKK

[2] = target: EGFP-hTara^241-330 (human); assay: co-IP; endogenous Rai14 with GFP-Tara deletion mutants in transfected HEK293 cells; ELB lysis buffer; control GFP-empty vector

**Q.** With Tara, endogenous in mouse brain as the molecule, how does the binding [1] read?
**A.** The binding was “binds”.

**Q.** With “EGFP-hTara^161-499 (human) (domain or fragment)” as the molecule, how does the binding (FLAG-hRai14 (human)) read?
**A.** Its binding is “binds”.

B1: Rai14, endogenous in HEK293 cells (protein, UniProt Q9P0K7 1-980)
chain: MKSLKAKFRKSDTNEWNKNDDRLLQAVENGDAEKVASLLGKKGASATKHDSEGKTAFHLAAAKGHVECLRVMITHGVDVTAQDTTGHSALHLAAKNSHHECIRKLLQSKCPAESVDSSGKTALHYAAAQGCLQAVQILCEHKSPINLKDLDGNIPLLLAVQNGHSEICHFLLDHGADVNSRNKSGRTALMLACEIGSSNAVEALIKKGADLNLVDSLGYNALHYSKLSENAGIQSLLLSKISQDADLKTPTKPKQHDQVSKISSERSGTPKKRKAPPPPISPTQLSDVSSPRSITSTPLSGKESVFFAEPPFKAEISSIRENKDRLSDSTTGADSLLDISSEADQQDLLSLLQAKVASLTLHNKELQDKLQAKSPKEAEADLSFDSYHSTQTDLGPSLGKPGETSPPDSKSSPSVLIHSLGKSTTDNDVRIQQLQEILQDLQKRLESSEAERKQLQVELQSRRAELVCLNNTEISENSSDLSQKLKETQSKYEEAMKEVLSVQKQMKLGLVSPESMDNYSHFHELRVTEEEINVLKQDLQNALEESERNKEKVRELEEKLVEREKGTVIKPPVEEYEEMKSSYCSVIENMNKEKAFLFEKYQEAQEEIMKLKDTLKSQMTQEASDEAEDMKEAMNRMIDELNKQVSELSQLYKEAQAELEDYRKRKSLEDVTAEYIHKAEHEKLMQLTNVSRAKAEDALSEMKSQYSKVLNELTQLKQLVDAQKENSVSITEHLQVITTLRTAAKEMEEKISNLKEHLASKEVEVAKLEKQLLEEKAAMTDAMVPRSSYEKLQSSLESEVSVLASKLKESVKEKEKVHSEVVQIRSEVSQVKREKENIQTLLKSKEQEVNELLQKFQQAQEELAEMKRYAESSSKLEEDKDKKINEMSKEVTKLKEALNSLSQLSYSTSSSKRQSQQLEALQQQVKQLQNQLAECKKQHQEVISVYRMHLLYAVQGQMDEDVQKVLKQILTMCKNQSQKK
**Q.** Which binding [2] does the source give for B1 here?
**A.** Its binding is “binds”.

No constants are given. Whether binding was seen depends on the method and setting. In cells and extracts the contact can be indirect. A result given as binding can be weak or reduced; the word gives no strength. For part of these data: Where a sequence is shown, tags or fusion partners need not be part of it.
